Measurements: patent publication US12577239B2, “Sulfilimines or sulfoximines containing fungicidal heterocyclic compounds” (PI INDUSTRIES LTD., priority 2019, dated 2026)
Some of these results come from one statement about several compounds together. For at least one compound, name, drawing or mass did not settle the structure.

Columns and labels:
Phytophthora infestans [1] = assay type: in vivo, Phytophthora infestans on tomato plants; details: 50 ppm; preventive, tomato plants inoculated one day after treatment; visual disease severity rating
Phytophthora infestans [2] = assay type: cell-based; details: 30 ppm; Rye Agar, radial growth after seven days at 18° C., 95% relative humidity

SMILES | control compared to the untreated check (Efficacy, % control) (Phytophthora infestans [1]) [%] | control compared to the untreated check (Phytophthora infestans [2]) [%]
CS(C)(=O)=Nc1cccc(F)c1C1CC(c2csc(C3CCN(C(=O)COc4ncccc4C(F)(F)F)CC3)n2)=NO1 (stereo not drawn) [Compound 84] | ≥ 70 | ≥ 70
Cc1cc(C(F)(F)F)nn1CC(=O)N1CCC(c2nc(C3=NO[C@H](c4cc(Cl)cc5c4N=S(C)(=O)C5)C3)cs2)CC1 (stereo partly drawn) [Compound 49] | ≥ 70 | ≥ 70
CCS(=O)(CC)=Nc1cccc(F)c1C1CC(c2csc(C3CCN(C(=O)COc4ncccc4C(F)(F)F)CC3)n2)=NO1 (stereo not drawn) [Compound 142] | ≥ 70 | ≥ 70
O=C(COc1ncccc1C(F)(F)F)N1CCC(c2nc(C3=NOC(c4c(Cl)cccc4N=S4(=O)CCCC4)C3)cs2)CC1 (stereo not drawn) [Compound 109] | ≥ 70 | ≥ 70
CCCS(C)(=O)=Nc1cccc(F)c1C1CC(c2csc(C3CCN(C(=O)Cn4nc(C(F)(F)F)cc4C(F)(F)F)CC3)n2)=NO1 (stereo not drawn) [Compound 126] | ≥ 70 | ≥ 70
CS1(=O)=Nc2c(ccc(F)c2[C@H]2CC(c3csc(C4CCN(C(=O)Cn5nc(C(F)F)cc5C(F)F)CC4)n3)=NO2)C1 (stereo partly drawn) [Compound 33] | ≥ 70 | ≥ 70
CC(C)S(C)(=O)=Nc1cccc(Cl)c1C1CC(c2csc(C3CCN(C(=O)Cn4nc(C(F)(F)F)cc4C(F)(F)F)CC3)n2)=NO1 (stereo not drawn) [Compound 119] | ≥ 70 | ≥ 70
CN=S(C)(=O)c1cccc(Cl)c1[C@H]1CC(c2csc(C3CCN(C(=O)C(C)n4nc(C(F)F)cc4C(F)F)CC3)n2)=NO1 (stereo partly drawn) [Compound 70] | ≥ 70 | ≥ 70
O=C(Cn1nc(C(F)F)cc1C(F)F)N1CCC(c2nc(C3=NOC(c4c(F)cccc4N=S4(=O)CCCC4)C3)cs2)CC1 (stereo not drawn) [Compound 26] | ≥ 70 | –
CN=S(C)(=O)c1cccc(C(F)F)c1C1CC(c2csc(C3CCN(C(=O)COc4ccc(C(F)(F)F)cn4)CC3)n2)=NO1 (stereo not drawn) [Compound 155] | ≥ 70 | ≥ 70
CCCS(C)(=O)=Nc1cccc(Cl)c1C1CC(c2csc(C3CCN(C(=O)COc4ncccc4OC)CC3)n2)=NO1 (stereo not drawn) [Compound 133] | ≥ 70 | ≥ 70
Cc1cc(C(F)(F)F)nn1CC(=O)N1CCC(c2nc(C3=NOC(c4c(F)ccc5c4N=S(C)(=O)C5)C3)cs2)CC1 (stereo not drawn) [Compound 32, 1-(4-(4-(5-(6-fluoro-2-methyl-2-oxido-3H-2λ^4-benzo[c]isothiazol-7-yl)-4,5-dihydroisoxazol-3-yl)thiazol-2-yl)piperidin-1-yl)-2-(5-methyl-3-(trifluoromethyl)-1H-pyrazol-1-yl)ethan-1-one] | ≥ 70 | –
Cc1ccn(CC(=O)N2CCC(c3nc(C4=NOC(c5c(Cl)cccc5S(C)(=N)=O)C4)cs3)CC2)n1 (stereo not drawn) [Compound 172] | ≥ 70 | –
CS(=N)(=O)c1cccc(Cl)c1C1CC(c2csc(C3CCN(C(=O)Cn4nc(C(F)F)cc4C(F)F)CC3)n2)=NO1 (stereo not drawn) [Compound 3, (2-(3-(2-(1-(2-(3,5-bis (difluoromethyl)-1H-pyrazol-1-yl)acetyl)piperidin-4-yl)thiazol-4-yl)-4,5-dihydroisoxazol-5-yl)-3-chlorophenyl) (imino) (methyl)-λ^6-sulfanone] | ≥ 70 | –
CCS(=O)(CC)=Nc1cccc(F)c1C1CC(c2csc(C3CCN(C(=O)Cn4nc(C(F)F)cc4C(F)F)CC3)n2)=NO1 (stereo not drawn) [Compound 140] | ≥ 70 | –
CC(C)S(=O)(=Nc1cccc(F)c1C1CC(c2csc(C3CCN(C(=O)Cn4nc(C(F)(F)F)cc4C(F)(F)F)CC3)n2)=NO1)C(C)C (stereo not drawn) [Compound 204] | – | ≥ 70

SMILES | control compared to the untreated check (Efficacy, % control) (Phytophthora infestans [1]) [%] | control compared to the untreated check (Phytophthora infestans [2]) [%]
CS1(=O)=Nc2c(cccc2C2CC(c3csc(C4CCN(C(=O)Cn5nc(C(F)F)cc5C(F)F)CC4)n3)=NO2)C1 (stereo not drawn) [Compound 36] | – | ≥ 70
CCS(=O)(CC)=Nc1cccc(F)c1C1CC(c2nc(C3CCN(C(=O)Cn4nc(C(F)(F)F)cc4C(F)(F)F)CC3)cs2)=NO1 (stereo not drawn) [Compound 244] | – | ≥ 70
Cc1cc(C(F)(F)F)nn1CC(=O)N1CCC(c2nc(C3=NOC(c4c(C(F)(F)F)cccc4S(C)(=N)=O)C3)cs2)CC1 (stereo not drawn) [Compound 77] | – | ≥ 70
Cc1cc(C)n(CC(=O)N2CCC(c3nc(C4=NOC(c5c(F)cccc5N=S(=O)(C(C)C)C(C)C)C4)cs3)CC2)n1 (stereo not drawn) [Compound 213] | – | ≥ 70
CCCS(=O)(=Nc1cccc(F)c1C1CC(c2csc(C3CCN(C(=O)Cn4nc(C(F)(F)F)cc4C)CC3)n2)=NO1)C(C)C (stereo not drawn) [Compound 197] | – | ≥ 70
Cc1cc(C)n(CC(=O)N2CCC(c3nc(C4=NO[C@H](c5c(Cl)cccc5S(=N)(=O)C(C)C)C4)cs3)CC2)n1 (stereo partly drawn) [Compound 44] | – | ≥ 70
Cc1cc(C(F)(F)F)nn1CC(=O)N1CCC(c2nc(C3=NO[C@@H](c4cccc5c4N=S(C)(=O)C5)C3)cs2)CC1 (stereo partly drawn) [Compound 47] | – | ≥ 70
Cc1cc(C(F)(F)F)nn1CC(=O)N1CCC(c2nc(C3=NOC(c4c(F)cccc4S(C)(=O)=NC#N)C3)cs2)CC1 (stereo not drawn) [Compound 39] | – | ≥ 70
CCS(=O)(=Nc1cccc(F)c1C1CC(c2csc(C3CCN(C(=O)COc4ncccc4OC)CC3)n2)=NO1)C(C)C (stereo not drawn) [Compound 186] | – | ≥ 70
CCS(=O)(CC)=Nc1cccc(Cl)c1C1CC(c2csc(C3CCN(C(=O)Cn4c(C)ccc(C(F)(F)F)c4=O)CC3)n2)=NO1 (stereo not drawn) [Compound 162] | – | ≥ 70
CC(C)S(=O)(=Nc1cccc(Cl)c1C1CC(c2csc(C3CCN(C(=O)Cn4cc5ccccc5n4)CC3)n2)=NO1)C(C)C (stereo not drawn) [Compound 233] | – | ≥ 70
CC(C)S(=O)(=Nc1cccc(Cl)c1C1CC(c2csc(C3CCN(C(=O)Cn4nc(C(F)F)cc4C(F)F)CC3)n2)=NO1)C(C)C (stereo not drawn) [Compound 227] | – | ≥ 70
CCS(C)(=O)=Nc1cccc(Cl)c1C1CC(c2csc(C3CCN(C(=O)Cn4nc(C(F)F)cc4C(F)F)CC3)n2)=NO1 (stereo not drawn) [Compound 96] | – | ≥ 70
CCS(=O)(=Nc1cccc(Cl)c1C1CC(c2csc(C3CCN(C(=O)Cn4nc(C)cc4C)CC3)n2)=NO1)C(C)C (stereo not drawn) [Compound 240] | – | ≥ 70
CCS(=O)(CC)=Nc1cccc(Cl)c1C1CC(c2csc(C3CCN(C(=O)Cn4cccc(C(F)(F)F)c4=O)CC3)n2)=NO1 (stereo not drawn) [Compound 153] | – | ≥ 70
Cc1cc(C(F)(F)F)nn1CC(=O)N1CCC(c2nc(C3=NOC(c4c(F)cccc4N=S(C)(C)=O)C3)cs2)CC1 (stereo not drawn) [Compound 6, ((3-fluoro-2-(3-(2-(1-(2-(5-methyl-3-(trifluoromethyl)-1H-pyrazol-1-yl)acetyl)piperidin-4-yl)thiazol-4-yl)-4,5-dihydroisoxazol-5-yl)phenyl)imino)dimethyl-λ^6-sulfanone] | ≥ 70 | –
